Assay results taken from PMC4951782.
The exact form of at least one protein or probe is not confirmed. At least one verdict was read from the data and is not stated in words by the source.

By UniProt entry, the sequences of proteins in these tests, tags left out.
UniProt Q76DI3, entry or part of it: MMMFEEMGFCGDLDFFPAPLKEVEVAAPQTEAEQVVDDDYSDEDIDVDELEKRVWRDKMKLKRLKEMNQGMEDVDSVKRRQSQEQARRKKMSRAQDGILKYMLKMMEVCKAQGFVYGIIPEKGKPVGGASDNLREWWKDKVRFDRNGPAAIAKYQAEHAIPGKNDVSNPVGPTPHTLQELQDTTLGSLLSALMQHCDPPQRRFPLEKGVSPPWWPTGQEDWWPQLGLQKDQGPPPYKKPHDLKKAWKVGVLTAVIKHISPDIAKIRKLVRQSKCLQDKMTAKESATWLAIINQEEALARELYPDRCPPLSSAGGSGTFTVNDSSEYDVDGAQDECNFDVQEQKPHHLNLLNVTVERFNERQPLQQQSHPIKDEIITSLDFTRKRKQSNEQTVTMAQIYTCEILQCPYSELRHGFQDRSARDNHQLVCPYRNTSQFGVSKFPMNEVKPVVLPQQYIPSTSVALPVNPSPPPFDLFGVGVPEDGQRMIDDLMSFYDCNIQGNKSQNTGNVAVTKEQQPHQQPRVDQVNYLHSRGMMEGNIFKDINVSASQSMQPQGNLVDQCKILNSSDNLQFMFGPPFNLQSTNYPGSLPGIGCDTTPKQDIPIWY

target: GST-LeEIL4 (Solanum lycopersicum) (UniProt Q76DI3); assay: EMSA; settings: 200-fold unlabeled probe used as competitor in separate reactions; DIG Gel Shift Kit (Roche) per manufacturer's instructions; pH and temperature not stated; polyacrylamide gel, 200-fold unlabeled competitor; recombinant protein; residues 1-605; protein details: N-terminal GST (pGEX-4T-1); label: DIG-ddUTP (3' end labeling)

Binding result, binds:
ATAAATATATAAATTTCATTCAAAAAAAATTGAAGATCTC (double strand) [probe 2, PERE-like element -857 to -851]
ATAAATTGAACGATACATTCAAATAAGTACTAACGATTAT (double strand) [probe 3, PERE-like element -787 to -781]
TATAGATATTTTAAACATTTTGAATTATCAATTATTGTGA (double strand) [probe 1, PERE-like element -920 to -914]
